In test [1] the test system is MILI (PIWIL2) piRISC loaded with L1MC piRNA (26 nt). Description: pre-steady-state target cleavage rate (min^-1); higher = faster piRNA-guided slicing of the target. Conditions: guide: L1MC piRNA 5'p-UAACUAAAUACUAUGCAAGCUGUAGG
Summed up: (§1)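 Cleave-'n-Seq: 1 nM active affinity-purified piRISC with one synthetic guide and 0.1 nM transcribed, DNA-blocked target RNA library were mixed, with or without 500 nM GTSF1 partner protein, in HEPES–potassium acetate buffer at 33 °C for 0–8 or 0–960 min. Uncleaved targets were sequenced and normalised to depth and to weakly complementary targets, three trials were pooled, and k3 was capped at 0.0001 min^-1. The pre-steady-state cleavage rate was fitted […].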

Test [2] concerns MIWI (PIWIL1) piRISC loaded with L1MC piRNA (30 nt). The description is as above. Conditions: guide: L1MC piRNA 5'p-UAACUAAAUACUAUGCAAGCUGUAGGUCCU
Summed up: as §1

Test [3] has as its system EfPiwi piRISC loaded with L1MC piRNA (26 nt). The test is described as follows: pre-steady-state target cleavage rate (min^-1); guide: L1MC piRNA 5'p-UAACUAAAUACUAUGCAAGCUGUAGG; MIWI and MILI are mouse PIWI proteins and EfPiwi is from a freshwater sponge; tags in brackets are library labels; higher = faster piRNA-guided slicing of the target. The gist of the method: as §1
Setting [4] is: auxiliary factor: 500 nM mouse GTSF1.
Setting [5] is: auxiliary factor: none (no GTSF1).
Setting [6] is: auxiliary factor: 500 nM Ephydatia muelleri Gtsf1.

We go through 14 sequences from the supplement of paper PMC10338343.

± gives the standard deviation. The list shows a part of the results, in another mix than the full data. Many entries were measured with a wide error. Some of the results follow.

With UCCUGGUACAGCUUGCUAUGUAUUUACAAA, the “pre-steady-state target cleavage rate” value in test [1] (setting [4]) was 0.0017 ± 0.0059; in test [1] (setting [5]), 0.000657 ± 0.0083; in test [2] (setting [4]), 0.0017 ± 0.0065; in test [2] (setting [5]), 0.000977 ± 0.0065; in test [3] (setting [6]) it was 0.00124 ± 0.0064.
For UCCUGCUACAGCUUGGUAAGUAUUUUCAAA, the “pre-steady-state target cleavage rate” value in test [1] (setting [4]) turned out to be 0.00231 ± 0.0057; in test [1] (setting [5]), 0.000773 ± 0.0078; in test [2] (setting [4]), 0.00154 ± 0.008; in test [2] (setting [5]), 0.000452 ± 0.013; in test [3] (setting [6]), 0.00122 ± 0.0057.
On the same counts, the results for UCCUGGAUGUCGAACCAUAGUAUUUGGUUA are 0.000663 ± 0.011, 0.000251 ± 0.018, 0.00032 ± 0.016, 0.000211 ± 0.018 and 0.000129 ± 0.021.
On the same counts, the results for UCCUGGAUGUCGUUGCAUACAUUUUAGUUA are 0.00108 ± 0.0091, 0.000733 ± 0.0095, 0.000615 ± 0.015, 0.000116 ± 0.028 and 0.000186 ± 0.017.
For the sequence UCCUGGAUGUCGAUGCAUUAGUAUUUAGUUA, the “pre-steady-state target cleavage rate” value was 0.00122 ± 0.0086 in test [1] (setting [4]), 0.000909 ± 0.006 in test [1] (setting [5]), 0.000773 ± 0.007 in test [2] (setting [5]) and 0.000197 ± 0.014 in test [3] (setting [6]).
In the case of UCCUGGAUGUCGAUGCAUAGUUUUUAGAUA, the “pre-steady-state target cleavage rate” value was found to be 0.000872 ± 0.011 in test [1] (setting [4]); 0.00105 ± 0.005 in test [1] (setting [5]); 0.000382 ± 0.025 in test [2] (setting [4]); 0.000578 ± 0.0088 in test [2] (setting [5]); 0.00127 ± 0.006 in test [3] (setting [6]).
For the sequence UCCUGCUACAGCUUGCAUAGGUAUUUAGUUA, the “pre-steady-state target cleavage rate” value in test [1] (setting [4]) worked out at 0.00815 ± 0.0047; in test [1] (setting [5]), 0.00421 ± 0.0024; in test [2] (setting [5]), 0.00125 ± 0.0062; in test [3] (setting [6]) it was 0.00304 ± 0.0019.
On to UCCUGGUUCAGCUUGCAUAGUAUUUACUUA, for which the “pre-steady-state target cleavage rate” value in test [1] (setting [4]) was determined as 0.0561 ± 0.02; in test [1] (setting [5]), 0.00288 ± 0.0034; in test [2] (setting [4]), 0.18 ± 0.041; in test [2] (setting [5]) it was 0.0237 ± 0.0048; in test [3] (setting [6]) it was 0.0025 ± 0.0031.
For the sequence UCCUGGAUGUGCUUGCAUACAUUUUAGUUA, the “pre-steady-state target cleavage rate” value in test [1] (setting [4]) came to 0.00178 ± 0.0073; in test [1] (setting [5]) it was 0.00207 ± 0.0038; in test [2] (setting [4]) it was 0.000747 ± 0.015; in test [2] (setting [5]), 0.000876 ± 0.0098; in test [3] (auxiliary factor: none (no Gtsf1)), 0.000233 ± 0.034.
With UCCUGCUACAGCUUGCAUUCUAUUUUCAAA, the “pre-steady-state target cleavage rate” value turned out to be 0.0184 ± 0.0078 in test [1] (setting [4]), 0.000288 ± 0.011 in test [1] (setting [5]), 0.000628 ± 0.011 in test [2] (setting [5]) and 0.000338 ± 0.0092 in test [3] (setting [6]).
On the same counts, the results for UCCUGGAACAGCUUGCAUCAGUAUUUAGUUA are 0.0151 ± 0.0061, 0.00122 ± 0.0047, 0.00109 ± 0.0057 and 0.00207 ± 0.0035.
On to UCCUCCUACACCUUGCAUAGUAUUUUCAAA, for which the “pre-steady-state target cleavage rate” value in test [1] (setting [4]) came to 0.0721 ± 0.021; in test [1] (setting [5]), 0.00114 ± 0.0044; in test [2] (setting [5]), 0.00181 ± 0.0026; in test [3] (setting [6]), 0.00277 ± 0.003.
On the same counts, the results for UCCUGCUACAGCAACCAUAGUAUUUAGUAA are 0.35 ± 0.063, 0.00141 ± 0.0048, 0.000403 ± 0.016 and 0.0014 ± 0.0059.
As for UCCUGGAUGUCGUUGCAUAGUAUUUACAUA, the “pre-steady-state target cleavage rate” value in test [1] (setting [4]) was determined as 0.00165 ± 0.0067; in test [1] (setting [5]) it was 0.000617 ± 0.0097; in test [2] (setting [4]) it was 0.000462 ± 0.017; in test [2] (setting [5]) it was 0.000831 ± 0.0077; in test [3] (setting [6]) it was 0.000317 ± 0.0095.
